PubChem BioAssay AID602196, INSERM | 2012
The whole screen tested about 23,000 reagents; below is a part drawn at random. 455 of them (2%) count as active. 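Active includes both protection and sensitisation; some change values fall well beyond the stated -50 to +50 range.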 A number with no mark means an inactive call. Not all columns of the deposit are shown. Not given: the amount of reagent.

Aim: 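Modifiers of cisplatin sensitivity in A549 cells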
Cells: human A549 lung cancer cells
Knock-down reagent: siRNA pair against human genes
Time to read-out: 48 h transfection before cisplatin; time from cisplatin to read-out not stated
Conditions: cisplatin at a dose killing half of control-siRNA cells; exact dose and duration not given
Detection: 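Cisplatin cell death as a shift from the 50% death seen with control siRNA; siRNAs toxic or growth-blocking alone scored 0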
Scale: two-siRNA summed score (-2 to +2): higher = both siRNAs protect from cisplatin killing; -2 means both sensitise
Call rule: 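siRNAs harmful alone (LDH or WST-1) get 0; others get +1 for less and -1 for more cisplatin killing; genes are active when the two siRNAs give the same sign, summing to ±2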
Calls: active = both siRNAs shift cisplatin killing the same way; inactive = no consistent shift, or siRNA harmful alone

target	two-siRNA summed score (-2 to +2)
SOST	0
STX19	0
ALPK2	0
CDK2AP1	0
LOC284371	-1
GHSR	0
SYN1	0
LOC440083	0
ENPEP	1
ENAH	1
PAPLN	0
TEX9	0
GBP5	0
PFKP	0
LOC440421	0
PLA2G4F	1
RANBP3	0
IL18	0
SI	0
HDGFL2	1
ASAH2	0
RTRAF	0
ZNF83	0
TMEM109	0
PRXL2B	0
LOC388763	1
TLE2	0
GPX1	0
SENP7	-1
LRRCC1	0
ATR	0
CCM2L	0
LRP2BP	-1
TSPYL4	0
MARCHF5	0
CCDC190	0
COX14	0
LOC387750	0
DGKB	0
SEMA3C	2 (active)
TSC22D2	0
CAAP1	0
FIBIN	0
HIC2	0
PRR5	0
TRAPPC12	0
LOC441817	1
ZNF497	1
PSAP	1
RACGAP1P1	0
LOC440191	0
SERPINB8	-1
RADIL	1
TUBA3C	0
TMEM138	0
OPA3	0
ACBD3	0
